The list shows only some results of the screen, not a fair sample: it is rich in T/C values a quarter to a half above the control, in often repeated tests (any T/C) and in doses without a T/C. Further doses and runs are listed elsewhere. T/C is the treated group as % of the vehicle group. Schedule codes are those of the source, taken here to give the interval after Q, in days (D) or hours (H), and the number of doses after X. Some T/C values are followed by the survivors on the day toxicity was checked, most often the fifth; without a count, all were alive then. Some entries give survivors of the animals treated and no T/C: the source holds a T/C of zero for them, seemingly a mark for toxic or unscored doses. Survivors were counted at the toxicity check, usually on the fifth day, unless a day is given; later deaths do not show. Some entries hold several experiments; the values are given in rising order.
Test system: CD8F1 mice, subcutaneous mammary adenocarcinoma, T/C%
Assay: NCI In Vivo Anticancer Drug Screen. Data for tumor model Mammary Adenocarcinoma CD8F1 (subcutaneous) in CD8F1
Settings: higher T/C = larger tumour
Procedure, shortened: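 Tumor-bearing mice, transplantable model; readout survival or tumor size; value = treated (T) / vehicle control (C).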

`CC1C=NNC1=O` (configuration not stated) was tested, and the T/C (T/C endpoint: median tumor weight (est.), dose: 800.0 mg/kg/injection, schedule: Q07DX005 (ip), vehicle: Klucel (hydroxypropylcellulose) (HPC), evaluated on day 30) was 131 % of control.

In the case of `CC(=O)O[C@@H]1[C@@H](O)C2=C3[C@]4(C)[C@@H]1C(C)(C)C(=O)C[C@@H]4[C@]3(O)[C@H](OC(C)=O)[C@@]1(C[C@@H]1C)C2=O`, the T/C (T/C endpoint: median tumor weight (est.), dose: 25.0 mg/kg/injection, schedule: Q07DX005 (ip), vehicle: saline with Tween-80, evaluated on day 30) was 140 % of control [9 of 10 alive].

For `O=S1(=O)C=C(c2ccccc2)C(c2ccccc2)=C1`, the T/C (T/C endpoint: median tumor weight (est.), dose: 12.5 mg/kg/injection, schedule: Q07DX005 (ip), vehicle: saline with Tween-80, evaluated on day 30) was 138 % of control [8 of 10 alive on day 30], the survivor count (T/C endpoint: median tumor weight (est.), dose: 100.0 mg/kg/injection, schedule: Q07DX005 (ip), vehicle: saline with Tween-80) was 0 of 10 on day 30 and the survivor count (T/C endpoint: median tumor weight (est.), dose: 200.0 mg/kg/injection, schedule: Q07DX005 (ip), vehicle: saline with Tween-80) was 0 of 10 on day 30.

In the case of `BrC[P+](CBr)(CBr)CBr`, the T/C (T/C endpoint: median tumor weight change, dose: 62.5 mg/kg/injection, schedule: Q01DX001 (ip), vehicle: saline with Tween-80, evaluated on day 28) was 138 % of control, the T/C (T/C endpoint: median tumor weight change, dose: 500.0 mg/kg/injection, schedule: Q01DX001 (ip), vehicle: saline with Tween-80, evaluated on day 28) was 135 % of control and the survivor count (T/C endpoint: median tumor weight change, dose: 1000.0 mg/kg/injection, schedule: Q01DX001 (ip), vehicle: saline with Tween-80) was 0 of 10 on day 28.

For `CC1=CC2c3cccc4[nH]cc(c34)CC2N(C)C1` (configuration not stated), the T/C (T/C endpoint: median tumor weight change, dose: 12.5 mg/kg/injection, schedule: Q01DX001 (ip), vehicle: suspension in saline, evaluated on day 31) was 125 % of control [9 of 10 alive on day 31], the T/C (T/C endpoint: median tumor weight change, dose: 50.0 mg/kg/injection, schedule: Q01DX001 (ip), vehicle: suspension in saline, evaluated on day 31) was 128 % of control and the survivor count (T/C endpoint: median tumor weight change, dose: 100.0 mg/kg/injection, schedule: Q01DX001 (ip), vehicle: suspension in saline) was 5 of 10 on day 31. For the same molecule, the survivor count (T/C endpoint: median tumor weight change, dose: 200.0 mg/kg/injection, schedule: Q01DX001 (ip), vehicle: suspension in saline) was 4 of 10 on day 31.

With `COP12(OCCO1)SC(C(F)(F)F)=C(C(F)(F)F)S2` the survivor count (T/C endpoint: median tumor weight (est.), dose: 800.0 mg/kg/injection, schedule: Q07DX005 (ip), vehicle: saline) was 0 of 10 on day 30.

With `Cc1ccccc1-[n+]1noc(N)n1` the survivor count (T/C endpoint: median tumor weight change, dose: 250.0 mg/kg/injection, schedule: Q01DX001 (ip), vehicle: water) was 0 of 10 on day 29 and the survivor count (T/C endpoint: median tumor weight change, dose: 500.0 mg/kg/injection, schedule: Q01DX001 (ip), vehicle: water) was 0 of 10 on day 29.

`CCN(CC)CC[n+]1ccc2c(C)c3[nH]c4ccc(O)cc4c3c(C)c2c1` was tested, and the survivor count (T/C endpoint: median tumor weight change, dose: 120.0 mg/kg/injection, schedule: Q01DX001 (ip), vehicle: suspension in saline) was 0 of 10 on day 36 and 2 of 10 on day 34, the survivor count (T/C endpoint: median tumor weight change, dose: 125.0 mg/kg/injection, schedule: Q01DX001 (ip), vehicle: suspension in saline) was 0 of 10 on day 25, 0 of 10 on day 28, 1 of 10 on day 35, 3 of 10 on day 38 and the survivor count (T/C endpoint: median tumor weight change, dose: 250.0 mg/kg/injection, schedule: Q01DX001 (ip), vehicle: suspension in saline) was 0 of 10 on day 25, 0 of 10 on day 28, 1 of 10 on day 38.

In the case of `O=C1NC(=O)/C(=C/C=C/c2ccccc2)S1`, the T/C (T/C endpoint: median tumor weight (est.), dose: 50.0 mg/kg/injection, schedule: Q07DX005 (ip), vehicle: saline with Tween-80, evaluated on day 30) was 134 % of control and the T/C (T/C endpoint: median tumor weight (est.), dose: 400.0 mg/kg/injection, schedule: Q07DX005 (ip), vehicle: saline with Tween-80, evaluated on day 30) was 136 % of control [9 of 10 alive].

With `NC(=O)/C=C/C(=O)c1c(Cl)cccc1Cl` the survivor count (T/C endpoint: median tumor weight change, dose: 12.5 mg/kg/injection, schedule: Q01DX001 (ip), vehicle: saline with Tween-80) was 6 of 10 on day 29, the survivor count (T/C endpoint: median tumor weight change, dose: 24.0 mg/kg/injection, schedule: Q01DX001 (ip), vehicle: saline with Tween-80) was 6 of 10 on day 30 and the T/C (T/C endpoint: median tumor weight change, dose: 25.0 mg/kg/injection, schedule: Q01DX001 (ip), vehicle: saline with Tween-80, evaluated on day 32) was 136 % of control. For the same molecule, the survivor count (T/C endpoint: median tumor weight change, dose: 25.0 mg/kg/injection, schedule: Q01DX001 (ip), vehicle: saline with Tween-80) was 3 of 10 on day 29, the survivor count (T/C endpoint: median tumor weight change, dose: 50.0 mg/kg/injection, schedule: Q01DX001 (ip), vehicle: saline with Tween-80) was 0 of 10 on day 29 and the survivor count (T/C endpoint: median tumor weight change, dose: 100.0 mg/kg/injection, schedule: Q01DX001 (ip), vehicle: saline with Tween-80) was 0 of 10 on day 29. The survivor count (T/C endpoint: median tumor weight change, dose: 200.0 mg/kg/injection, schedule: Q01DX001 (ip), vehicle: saline with Tween-80) was 0 of 10 on day 29 and 0 of 10 on day 32.

— PubChem BioAssay AID220 (DTP/NCI, 2004)
